{"source": "patent US20200347039A1", "about": "“CRYSTAL FORM OF RENAL OUTER MEDULLARY POTASSIUM CHANNEL INHIBITOR AND PREPARATION METHOD THEREOF” (JIANGSU HENGRUI MEDICINE CO., LTD., priority 2017, published 2020)", "format_in_all_cases": "physicochemical", "key": {"[1]": {"assay": "Investigation of crystal form stability (illumination, heating, high humidity; purity by HPLC)", "conditions": "placed open, tartrate; for HPLC purity, 40 °C.: heating 40° C.; for HPLC purity, 60 °C.: heating 60° C.; for HPLC purity, 75% RH: high humidity 75% RH; for HPLC purity, 90% RH: high humidity 90% RH; for HPLC purity, Illumination: illumination (4500Lux)"}, "[2]": {"assay": "Special stability of crystal form (grinding, heating, tableting)", "conditions": "for crystal form after processing: tartrate"}, "[3]": {"assay": "Hygroscopicity study (TAQ5000VSA, 25° C.)"}, "[4]": {"conditions": "Grinding for 10 min in a mortar under nitrogen"}}, "note": "For at least one compound, name, drawing or mass did not settle the structure."}
{"smiles": "COc1cc(C(=O)NC2CCN(C[C@H](O)c3ccc4c(c3C)COC4=O)CC2)ncc1C#N.O=C(O)C(O)C(O)C(=O)O", "note": "[Crystal form I, (R)-5-cyano-N-(1-(2-hydroxy-2-(4-methyl-1-carbonyl-1,3-dihydroisobenzofuran-5-yl)ethyl)piperidin-4-yl)-4-methoxypyridinecarboxamide tartrate]", "values": [{"measurement": "HPLC purity, 40 °C.", "setting": "[1]; 0 days", "result": 99.67, "unit": "%"}, {"measurement": "HPLC purity, 40 °C.", "setting": "[1]; 5 days", "result": 99.52, "unit": "%"}, {"measurement": "HPLC purity, 40 °C.", "setting": "[1]; 10 days", "result": 99.45, "unit": "%"}, {"measurement": "HPLC purity, 60 °C.", "setting": "[1]; 0 days", "result": 99.67, "unit": "%"}, {"measurement": "HPLC purity, 60 °C.", "setting": "[1]; 5 days", "result": 99.55, "unit": "%"}, {"measurement": "HPLC purity, 60 °C.", "setting": "[1]; 10 days", "result": 99.39, "unit": "%"}, {"measurement": "HPLC purity, 75% RH", "setting": "[1]; 0 days", "result": 99.67, "unit": "%"}, {"measurement": "HPLC purity, 75% RH", "setting": "[1]; 5 days", "result": 99.53, "unit": "%"}, {"measurement": "HPLC purity, 75% RH", "setting": "[1]; 10 days", "result": 99.39, "unit": "%"}, {"measurement": "HPLC purity, 90% RH", "setting": "[1]; 0 days", "result": 99.67, "unit": "%"}, {"measurement": "HPLC purity, 90% RH", "setting": "[1]; 5 days", "result": 99.59, "unit": "%"}, {"measurement": "HPLC purity, 90% RH", "setting": "[1]; 10 days", "result": 99.43, "unit": "%"}, {"measurement": "HPLC purity, Illumination", "setting": "[1]; 0 days", "result": 99.67, "unit": "%"}, {"measurement": "HPLC purity, Illumination", "setting": "[1]; 5 days", "result": 99.54, "unit": "%"}, {"measurement": "HPLC purity, Illumination", "setting": "[1]; 10 days", "result": 99.34, "unit": "%"}]}
{"smiles": "COc1cc(C(=O)NC2CCN(C[C@H](O)c3ccc4c(c3C)COC4=O)CC2)ncc1C#N.O=C(O)C(O)C(O)C(=O)O", "note": "[Crystal form III, (R)-5-cyano-N-(1-(2-hydroxy-2-(4-methyl-1-carbonyl-1,3-dihydroisobenzofuran-5-yl)ethyl)piperidin-4-yl)-4-methoxypyridinecarboxamide tartrate]", "values": [{"measurement": "DSC peak after processing", "setting": "[2]; [4]", "result": 226.91, "unit": "°C"}, {"measurement": "crystal form after processing", "setting": "[2]; [4]", "result": "stays unchanged"}, {"measurement": "DSC peak after processing", "setting": "[2]; Heating at 80° C. for 3 hrs", "result": 226.57, "unit": "°C"}, {"measurement": "crystal form after processing", "setting": "[2]; Heating at 80° C. for 3 hrs", "result": "stays unchanged"}, {"measurement": "DSC peak after processing", "setting": "[2]; Tableting", "result": 226.58, "unit": "°C"}, {"measurement": "crystal form after processing", "setting": "[2]; Tableting", "result": "stays unchanged"}, {"measurement": "weight change at 0% RH-80% RH", "setting": "[3]; 0% RH-80% RH", "result": 0.93, "unit": "%"}, {"measurement": "hygroscopicity (in words)", "setting": "[3]; 25° C., 10.0% RH-80.0% RH", "result": "slightly hygroscopic"}, {"measurement": "weight change 10.0% RH-80.0% RH", "setting": "[3]; 25° C., 10.0% RH-80.0% RH", "result": 0.9332, "unit": "%"}, {"measurement": "crystal type after hygroscopicity test", "setting": "[3]; 25° C., humidity 10-90%, two cycles", "result": "Not changed"}, {"measurement": "HPLC purity, 40 °C.", "setting": "[1]; 0 days", "result": 99.65, "unit": "%"}, {"measurement": "HPLC purity, 40 °C.", "setting": "[1]; 5 days", "result": 99.66, "unit": "%"}, {"measurement": "HPLC purity, 40 °C.", "setting": "[1]; 10 days", "result": 99.66, "unit": "%"}, {"measurement": "HPLC purity, 60 °C.", "setting": "[1]; 0 days", "result": 99.65, "unit": "%"}, {"measurement": "HPLC purity, 60 °C.", "setting": "[1]; 5 days", "result": 99.67, "unit": "%"}, {"measurement": "HPLC purity, 60 °C.", "setting": "[1]; 10 days", "result": 99.64, "unit": "%"}, {"measurement": "HPLC purity, 75% RH", "setting": "[1]; 0 days", "result": 99.65, "unit": "%"}, {"measurement": "HPLC purity, 75% RH", "setting": "[1]; 5 days", "result": 99.69, "unit": "%"}, {"measurement": "HPLC purity, 75% RH", "setting": "[1]; 10 days", "result": 99.66, "unit": "%"}, {"measurement": "HPLC purity, 90% RH", "setting": "[1]; 0 days", "result": 99.65, "unit": "%"}, {"measurement": "HPLC purity, 90% RH", "setting": "[1]; 5 days", "result": 99.69, "unit": "%"}, {"measurement": "HPLC purity, 90% RH", "setting": "[1]; 10 days", "result": 99.66, "unit": "%"}, {"measurement": "HPLC purity, Illumination", "setting": "[1]; 0 days", "result": 99.65, "unit": "%"}, {"measurement": "HPLC purity, Illumination", "setting": "[1]; 5 days", "result": 99.65, "unit": "%"}, {"measurement": "HPLC purity, Illumination", "setting": "[1]; 10 days", "result": 99.57, "unit": "%"}]}
{"smiles": "COc1cc(C(=O)NC2CCN(C[C@H](O)c3ccc4c(c3C)COC4=O)CC2)ncc1C#N.O=C(O)C(O)C(O)C(=O)O", "note": "[Crystal form II, (R)-5-cyano-N-(1-(2-hydroxy-2-(4-methyl-1-carbonyl-1,3-dihydroisobenzofuran-5-yl)ethyl)piperidin-4-yl)-4-methoxypyridinecarboxamide tartrate]", "values": [{"measurement": "HPLC purity, 40 °C.", "setting": "[1]; 0 days", "result": 99.47, "unit": "%"}, {"measurement": "HPLC purity, 40 °C.", "setting": "[1]; 5 days", "result": 99.38, "unit": "%"}, {"measurement": "HPLC purity, 40 °C.", "setting": "[1]; 10 days", "result": 99.15, "unit": "%"}, {"measurement": "HPLC purity, 60 °C.", "setting": "[1]; 0 days", "result": 99.47, "unit": "%"}, {"measurement": "HPLC purity, 60 °C.", "setting": "[1]; 5 days", "result": 99.22, "unit": "%"}, {"measurement": "HPLC purity, 60 °C.", "setting": "[1]; 10 days", "result": 98.87, "unit": "%"}, {"measurement": "HPLC purity, 75% RH", "setting": "[1]; 0 days", "result": 99.47, "unit": "%"}, {"measurement": "HPLC purity, 75% RH", "setting": "[1]; 5 days", "result": 99.30, "unit": "%"}, {"measurement": "HPLC purity, 75% RH", "setting": "[1]; 10 days", "result": 99.10, "unit": "%"}, {"measurement": "HPLC purity, 90% RH", "setting": "[1]; 0 days", "result": 99.47, "unit": "%"}, {"measurement": "HPLC purity, 90% RH", "setting": "[1]; 5 days", "result": 99.30, "unit": "%"}, {"measurement": "HPLC purity, 90% RH", "setting": "[1]; 10 days", "result": 99.10, "unit": "%"}, {"measurement": "HPLC purity, Illumination", "setting": "[1]; 0 days", "result": 99.47, "unit": "%"}, {"measurement": "HPLC purity, Illumination", "setting": "[1]; 5 days", "result": 99.23, "unit": "%"}, {"measurement": "HPLC purity, Illumination", "setting": "[1]; 10 days", "result": 98.62, "unit": "%"}]}
